Test results from the supplement of paper PMC3334620.
Over roughly 33,000 sequences, “E-score (-0.5 to 0.5)” has its median near -0.015; the highest 2% begin near 0.3. Some of the results follow.

target: T1, Abf1 (UniProt P14164); experiment: PBM E-score (8-mer binding enrichment) (E-score (-0.5 to 0.5)); higher = stronger / more preferred TF binding; conditions: protein concentration: 200 nM; construct: GST-full length
T1 sequence: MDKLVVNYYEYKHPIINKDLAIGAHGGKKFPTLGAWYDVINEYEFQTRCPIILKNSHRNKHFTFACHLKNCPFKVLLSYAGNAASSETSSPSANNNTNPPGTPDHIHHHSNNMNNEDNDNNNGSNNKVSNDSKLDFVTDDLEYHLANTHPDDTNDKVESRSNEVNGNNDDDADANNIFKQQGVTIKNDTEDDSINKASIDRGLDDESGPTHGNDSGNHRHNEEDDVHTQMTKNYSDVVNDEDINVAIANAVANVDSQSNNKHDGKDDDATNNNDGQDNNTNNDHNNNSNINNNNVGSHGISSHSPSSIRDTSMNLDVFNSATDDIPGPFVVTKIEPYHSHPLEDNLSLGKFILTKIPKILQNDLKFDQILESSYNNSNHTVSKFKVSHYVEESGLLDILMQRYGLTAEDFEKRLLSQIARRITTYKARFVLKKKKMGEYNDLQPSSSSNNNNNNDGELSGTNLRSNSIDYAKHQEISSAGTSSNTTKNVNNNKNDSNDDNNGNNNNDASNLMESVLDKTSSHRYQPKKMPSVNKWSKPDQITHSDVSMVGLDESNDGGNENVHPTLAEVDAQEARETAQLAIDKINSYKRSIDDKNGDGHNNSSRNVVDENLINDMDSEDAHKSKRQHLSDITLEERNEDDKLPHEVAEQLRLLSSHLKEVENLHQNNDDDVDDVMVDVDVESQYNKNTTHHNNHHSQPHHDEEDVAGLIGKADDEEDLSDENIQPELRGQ
Summary of the method: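 GST-tagged yeast TFs (full-length or DNA-binding domain) were made by PURExpress in vitro transcription/translation and applied at about 100-200 nM to universal all-10-mer Agilent arrays. The arrays were made double-stranded by primer extension, on fresh or once-stripped slides. Bound protein was detected with fluorescent anti-GST, and scans were normalised with masliner. Each ungapped eight-base word, pooled with its reverse complement, received an E-score (modified Wilcoxon-Mann-Whitney statistic) from the Universal PBM Analysis Suite.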

| Sequence | PBM E-score |
| --- | --- |
| CATTAAAG | 0.202 |
| CGCCGGCG | -0.128 |
| CGCTAGAC | -0.146 |
| CTTAAAAC | 0.136 |
| ACAACACC | -0.0773 |
| AATCGGGT | 0.193 |
| CAGTCGTA | 0.0431 |
| GTCTCGCA | 0.0198 |
| GAAGTACC | -0.00875 |
| GAAATAGA | 0.0292 |
| GGCCCCCC | -0.48 |
| CTGCGGGC | -0.124 |
| CTGCGGCC | -0.281 |
| GTTCGCAA | 0.0663 |
| AATATCAG | 0.119 |
| ACTATAGT | -0.0916 |
| TATAGAAA | -0.0254 |
| AAAGTACC | -0.0153 |
| CCTCCGCG | -0.263 |
| AGACCGTC | 0.148 |
| ACATAGGC | 0.034 |
| CTTCTACC | -0.189 |
| CCGATGTA | -0.0466 |
| ATAGCCAC | 0.00817 |
| ATCGAAAA | 0.0388 |

Exported as labelled records: part of the list above
GAAGTACC
  PBM E-score: -0.00875
GAAATAGA
  PBM E-score: 0.0292
GGCCCCCC
  PBM E-score: -0.48
CTGCGGGC
  PBM E-score: -0.124

Additional results.

| Sequence | PBM E-score |
| --- | --- |
| CAGAAACG | -0.00582 |
| GCGTCACC | -0.0404 |
| CTGAAATA | 0.00105 |
| AACCTTCC | -0.294 |
| GATGAAAC | 0.0663 |
| CGGGCGCA | -0.146 |
| TAATTACA | 0.157 |
| AAAGTTTA | -0.0558 |
| ATTAGCTG | 0.0666 |
| AAACATGC | -0.145 |
| AGTAACGC | -0.0388 |
| GGTTTACA | 0.0129 |
| AAGGCCTG | -0.26 |
| AGCGAATG | -0.111 |
| ACCATACG | 0.137 |
| AGCGGGGC | 0.00065 |
| CCATAAGA | 0.0147 |
| GAACTAGC | -0.211 |
| CTCATGAG | -0.128 |
| ATCCAAAA | 0.217 |
| GCTTCAGA | -0.157 |
| GGACGACA | 0.299 |
| GGTAGTGA | 0.267 |
| CGCAGAAA | -0.0752 |
| CAGTAAAG | -0.194 |

| Sequence | PBM E-score |
| --- | --- |
| AACGTTTC | 0.0528 |
| ATACTACA | 0.2 |
| AACTTAAA | 0.102 |
| CACCAGCG | -0.185 |
| ATTGGCCC | -0.151 |
| CCGCGGAC | 0.0118 |
| AACACTGT | 0.0203 |
| AATGAGAG | -0.114 |
| ACACGGGG | -0.087 |
| AGTCAGTG | -0.029 |
| AGGAAACC | -0.0102 |
| CTTGCCCA | -0.172 |
| GACGGAAA | 0.207 |
| GGGTAAAA | 0.0197 |
| CCGTAAAA | 0.235 |
| AGCAGCCT | -0.282 |
| AAATTTCG | 0.0641 |
| CTCTTACC | -0.0139 |
| GCATTCGA | -0.0434 |
| CAGCAAAA | -0.0386 |
| CCCCCGCG | -0.261 |
| TCGTCTCA | 0.238 |
| CTCCTCTA | -0.126 |
| CACCAACG | -0.0896 |
| AAAGCTAC | -0.00618 |

Some of the entries above, set out differently.
Sequence	PBM E-score
ATTGGCCC	-0.151
CCGCGGAC	0.0118

Carrying on.

| Sequence | PBM E-score |
| --- | --- |
| ACAGGGGC | -0.194 |
| AAGACAGT | -0.141 |
| AGTAGAAG | 0.0154 |
| CCCCGAAC | -0.187 |
| CAGTGGTA | -0.166 |
| AACAGACT | -0.155 |
| AGCTAGGA | -0.183 |
| AAGGGGAA | 0.00372 |
| GCACCCAC | 0.161 |
| AATCTGGG | -0.0476 |
| ATAAGCGG | 0.00641 |
| CCCGTACC | 0.182 |
| ACTAGGAT | -0.003 |
| GTGGCCGA | -0.203 |
| CAGTTAGC | -0.111 |
| AAACTGAG | -0.185 |
| AACGATCA | 0.24 |
| CACTCAGA | -0.0129 |
| GTGGATTA | 0.0165 |
| AGCAGGAC | 0.0761 |
| CCCCTGAC | -0.134 |
| GATTCTCC | -0.185 |
| ATGACCGG | 0.0406 |
| TATGTGGA | 0.0334 |
| AGTATTTC | 0.209 |

| Sequence | PBM E-score |
| --- | --- |
| TAGGAGAA | -0.139 |
| AAATCGGT | -0.108 |
| ACTCGAGC | -0.0898 |
| CCCTTCAA | -0.138 |
| AAACTCGT | 0.0777 |
| ATATGCGG | 0.0202 |
| AGCCGCTC | -0.0277 |
| CTCCTCGC | -0.21 |
| AGGTCGGC | -0.119 |
| AGATCCCT | -0.0124 |
| AACTCTAG | -0.0973 |
| AGCGCCAT | -0.219 |
| ACGGAGTG | 0.0865 |
| CAAGTACC | -0.0939 |
| CACCTTCA | -0.182 |
| ACCCGTGA | 0.0874 |
| AGCCGCTG | -0.143 |
| GGGACCCC | -0.226 |
| AAGGAGGT | -0.241 |
| ACCACACC | -0.0125 |
| CTGCTAAC | -0.0965 |
| AGTTGCCA | -0.0833 |
| CTTCCCTA | -0.119 |
| ACTCCAAA | -0.147 |
| ACCATCCC | -0.155 |

| Sequence | PBM E-score |
| --- | --- |
| CTGGTAAC | 0.163 |
| CCTGTCGA | -0.139 |
| AATGACGG | 0.264 |
| CACAGGGG | -0.279 |
| CACTGTGC | -0.117 |
| AAAATGAG | 0.0916 |
| GGGGAAGA | -0.322 |
| ATCGCTAG | 0.289 |
| TGCGAACA | -0.00565 |
| CTCCGGAG | -0.302 |
| TTACATAA | 0.197 |
| CACCCTTC | -0.117 |
| TCCGCGGA | 0.00082 |
| CAACAAAA | 0.0923 |
| GACTTAGA | -0.106 |
| ACATTGAG | -0.169 |
| TGAGGCAA | 0.058 |
| CCCGTAAC | -0.123 |
| AGGAAACG | 0.0642 |
| ACGGTCAG | 0.209 |
| ACTCTATG | -0.19 |
| ACTGTGAA | -0.00521 |
| CAAGGCGA | -0.11 |
| CACTTGCA | -0.0824 |
| GGTGAGAA | 0.0696 |

| Sequence | PBM E-score |
| --- | --- |
| ACTCGATC | 0.00233 |
| CAGTTACG | -0.0205 |
| TCCAGAAA | -0.0399 |
| ATGCTATC | 0.186 |
| CTAAGTGA | 0.327 |
| CTCCCGCC | -0.119 |
| AGCAGAGG | -0.206 |
| ACGTTCTC | 0.0453 |
| ATCTGAGG | -0.067 |
| CGACCCAA | 0.0626 |
| GAATTGTC | 0.192 |
| GGGGAACA | -0.264 |
| CGCTTCAC | -0.221 |
| ACTCTTGC | 0.028 |
| AGAGTAGG | -0.0248 |
| ATACCCGA | 0.058 |
| GCATACGC | -0.149 |
| AGGGTCCA | -0.208 |
| AGTCAAAT | 0.0428 |
| ATGATAGG | 0.116 |
| AGCAGTAA | -0.0758 |
| AGGGGCGA | -0.218 |
